Results deposited as PubChem BioAssay AID1259308 (NCATS, 2017)
The whole screen tested about 59,000 reagents; below is a part drawn at random. Over the whole deposit, about 1,510 (2.6%) got an active call. 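Calls use total luciferase alone and ignore viability, so some active siRNAs may act by altering cell number.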 Reagents against one gene are numbered here. Not all columns of the deposit are shown.

Aim: 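Knock-downs that increase output of a recombinant reporter protein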 (primary screen)
Cells: human HEK293 embryonic kidney cells stably expressing firefly luciferase (HEK-CMV-Luc2-Hygro)
Knock-down reagent: single siRNA against human genes, 0.8 pmol siRNA per well
Timing: 72 h
Read-out: 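Luciferase light (ONE-Glo) measured on one replicate plate set and viability (CellTiter-Glo) on the other, scaled to a negative control siRNA, with robust z-scores and luciferase per cell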
Scale: total luciferase, z-score and total luciferase, % of control: higher = more reporter protein produced; luciferase per cell, z-score: higher = more reporter output per viable cell
Rule for the call: 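An siRNA counts as active if its total luciferase robust z-score exceeds 3; genes with two or more such siRNAs out of three were retested with fresh siRNAs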
Meaning of the calls: active = raised luciferase; inactive = no rise

Target gene	reagent	total luciferase, z-score	total luciferase, % of control	luciferase per cell, z-score	outcome
ZHX2 (zinc fingers and homeoboxes 2)	1	0.0263	82.4	0.032	inactive
ZHX2 (zinc fingers and homeoboxes 2)	2	-0.483	72.3	-0.555	inactive
ZHX2 (zinc fingers and homeoboxes 2)	3	0.521	92.2	0.336	inactive
RIPOR2 (RHO family interacting cell polarization regulator 2)	1	-1.34	55.2	-0.0299	inactive
RIPOR2 (RHO family interacting cell polarization regulator 2)	2	-0.335	75.2	-0.398	inactive
RIPOR2 (RHO family interacting cell polarization regulator 2)	3	-0.525	71.4	-1.28	inactive
NHERF4 (NHERF family PDZ scaffold protein 4)	1	0.0132	82.1	1.32	inactive
NHERF4 (NHERF family PDZ scaffold protein 4)	2	6.71	215	3.34	active
NHERF4 (NHERF family PDZ scaffold protein 4)	3	-0.288	76.1	-0.572	inactive
FGF18 (fibroblast growth factor 18)	1	0.899	99.8	0.047	inactive
FGF18 (fibroblast growth factor 18)	2	-1.16	58.8	-0.261	inactive
FGF18 (fibroblast growth factor 18)	3	-1.04	61.2	-1.78	inactive

Ordered by “luciferase per cell, z-score” (lowest first): 4 of the entries above
Target gene	reagent	total luciferase, z-score	total luciferase, % of control	luciferase per cell, z-score	outcome
RIPOR2 (RHO family interacting cell polarization regulator 2)	3	-0.525	71.4	-1.28	inactive
RIPOR2 (RHO family interacting cell polarization regulator 2)	2	-0.335	75.2	-0.398	inactive
NHERF4 (NHERF family PDZ scaffold protein 4)	1	0.0132	82.1	1.32	inactive
NHERF4 (NHERF family PDZ scaffold protein 4)	2	6.71	215	3.34	active

The list goes on.
Target gene	reagent	total luciferase, z-score	total luciferase, % of control	luciferase per cell, z-score	outcome
REELD1 (reeler domain containing 1)	1	-0.461	72.7	-0.321	inactive
REELD1 (reeler domain containing 1)	2	0.219	86.2	0.49	inactive
REELD1 (reeler domain containing 1)	3	1.21	106	0.706	inactive
BROX (BRO1 domain and CAAX motif containing)	1	-1.93	43.4	-2.61	inactive
BROX (BRO1 domain and CAAX motif containing)	2	-0.759	66.8	-0.923	inactive
BROX (BRO1 domain and CAAX motif containing)	3	-0.223	77.5	-0.901	inactive
GALNT4 (polypeptide N-acetylgalactosaminyltransferase 4)	1	-0.972	62.6	-1.05	inactive
GALNT4 (polypeptide N-acetylgalactosaminyltransferase 4)	2	1.07	103	0.87	inactive
GALNT4 (polypeptide N-acetylgalactosaminyltransferase 4)	3	-1.64	49.3	-2.4	inactive
CACNA1E (calcium voltage-gated channel subunit alpha1 E)	1	0.202	85.9	0.0616	inactive
CACNA1E (calcium voltage-gated channel subunit alpha1 E)	2	0.082	83.5	-0.145	inactive
CACNA1E (calcium voltage-gated channel subunit alpha1 E)	3	0.214	86.1	0.12	inactive
